From doi:10.1101/2022.02.27.481910 (bioRxiv, 2022) come the findings set out here.

In this assay the target is T1, KaiC-EE (S431E, T432E) (UniProt Q79PF4).
T1 sequence: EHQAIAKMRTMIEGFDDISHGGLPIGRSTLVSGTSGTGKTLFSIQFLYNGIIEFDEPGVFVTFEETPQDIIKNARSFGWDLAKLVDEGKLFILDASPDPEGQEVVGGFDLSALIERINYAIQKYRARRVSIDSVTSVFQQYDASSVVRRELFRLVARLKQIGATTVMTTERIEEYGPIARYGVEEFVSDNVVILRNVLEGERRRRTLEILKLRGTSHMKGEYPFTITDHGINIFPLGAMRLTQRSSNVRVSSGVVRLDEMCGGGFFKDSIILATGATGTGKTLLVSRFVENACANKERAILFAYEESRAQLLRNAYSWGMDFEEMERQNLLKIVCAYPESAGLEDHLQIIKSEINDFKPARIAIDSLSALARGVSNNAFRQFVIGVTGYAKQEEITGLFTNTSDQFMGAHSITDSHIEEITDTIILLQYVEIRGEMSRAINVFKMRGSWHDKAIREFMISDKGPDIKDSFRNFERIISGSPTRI
As to the kind of experiment: cryo-EM structure.

Results are given in words; binding and its absence hold for the method and conditions named. A result given as binding can be weak or reduced; the word gives no strength.

For the substance “KaiC-AA (S431A, T432A) (from UniProt Q79PF4) (enzyme)”, the binding entry is listed as “binds”.
